Experimental data: PMC4229625
No constants are given. Whether binding was seen depends on the method and setting. Binding seen in cells or lysates may run through a third protein. A result given as binding can be weak or reduced; the word gives no strength.

Sequences of proteins named here, by UniProt entry; tags and fusion partners are left off. A change or cut given only in a name is not applied to a line headed by its entry.
UniProt Q9XZ31: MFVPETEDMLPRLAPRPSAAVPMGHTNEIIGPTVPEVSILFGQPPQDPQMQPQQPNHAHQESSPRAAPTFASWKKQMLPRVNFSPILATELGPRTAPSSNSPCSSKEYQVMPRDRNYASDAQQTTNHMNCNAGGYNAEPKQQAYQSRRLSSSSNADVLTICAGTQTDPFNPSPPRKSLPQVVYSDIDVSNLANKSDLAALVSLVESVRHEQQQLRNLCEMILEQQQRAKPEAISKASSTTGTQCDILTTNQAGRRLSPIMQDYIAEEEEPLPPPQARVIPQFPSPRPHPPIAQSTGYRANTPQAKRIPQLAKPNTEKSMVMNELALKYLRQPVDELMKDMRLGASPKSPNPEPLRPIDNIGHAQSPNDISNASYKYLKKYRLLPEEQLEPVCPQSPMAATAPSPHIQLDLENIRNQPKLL

Legend:
Assay in all cases: pull-down; recombinant GST-Ana2 (or its fragments or mutants) on beads, incubated with active MBP-Plk4 or inactive MBP-Plk4^KD, then with ^35S-Met-labeled proteins made by in vitro transcription and translation; SDS-PAGE and autoradiography; only the target purified
[1] = target: Ana2 S365A mutant (Drosophila) (UniProt Q9XZ31)
[2] = target: Ana2 S373A mutant (Drosophila) (UniProt Q9XZ31)
[3] = target: Ana2 S318A mutant (Drosophila) (UniProt Q9XZ31)
[4] = target: Ana2 S370A mutant (Drosophila) (UniProt Q9XZ31)
[5] = target: GST-Ana2 treated with inactive Plk4 (MBP-Plk4^KD) (Drosophila) (UniProt Q9XZ31)

| binding [1] | binding [2] | binding [3] | binding [4] | binding [5] | Binder |
| --- | --- | --- | --- | --- | --- |
| binds | binds | binds | binds | – | ^35S-Met-labeled Sas6 (protein, UniProt Q9VAC8 1-472, ^35S-methionine-labeled) MWPPGSEDSYSAKMDYGKSVVNILPSVEMLVNFNGEMTRSSKRSCLLYAERVDFKELLQLRLTEKSDQRRMYITTVDSASFQDLKQDQSLNVSFSGFIDNVVRMLKDCQSGKLELHLTTRDQNLSSGREVHDYYLQFVEIRSFKNLVHLSLPCRSAPLNTVLFYINSMLEASHKKQYILEQSMQQMQAEINAQRAHAERLTTENTNIREALAENTRILEEKHAAEVHQYQEKLSKINEQRSNELERNRRAISGFQAQLDKASLEKAELKSAQEQAEKRCQTLSEELSCCKARVCTLKEQNDKLHGDVANIRKHERKLEYKIEDLKQHTVELQEHIQKGNKEKANIAAELEAEKKILHTKRQALEMASEEISKANQIIVKQSQELLNLKKTIAWRTEVALQQEKAVQAKESLLSLRENELREARITIEKLREEIPQQLQSMRNFAQGLEQKYSKQILILKERLAIPTGKENRR |
| – | – | – | – | binds | ^35S-Met-labeled Sas4 (protein, UniProt Q9VI72 1-901, ^35S-methionine-labeled) MQEAGESPVGMPLSQEAIAQRLAALSRWQDEQKRLLQERQSNHRVLLGLEQRNMYKMLGLLHQETESHENSVLEEWDEEHSIQMPRLAADPDEHEPEISMADPQPAKPKRPFLRRGEGLKQRFKINPDQLRLENLPRYKFANAHPQFRTPQMKKGILKKQVKSPPNPAPPPAPKPSAQLDDLNEQRFQQMLIGKNACSSTPDLKSSYASSTTASSTSPRVRFVEQKSRAGQTTHADDEASSEASPMTGVCWAKVLDTQSIKPAQIQRRSAQIRVEDDSNVSIFELLEQKATEGNIDMNSSCIRTFMARKDQRRRVADDSDHIVVTQQVRQMRLQPQVDQMLVQELQEGDEEDTEPSSDQTLTMTPIQVGNTKVRVRFSDSNDTHEYSDATSLNDGSNIQLFEQFKSALFQALEQKKKSSPSKESDEPITKDLQEKANLVRTRLEELETEIATFKEQNAQLLRLRQQHELEKAKCTQDHMEAMERVHDEKIQAEIYLHDERMKIEEERRKFEQQMRLQKSNANSKEKKEIAALKQEVEGLQLQLKQKEQAHVSAQARLRAQLRASEKEQRNYRDEIELLRKENKRLEQELVKIGRENNSKMLQEINRNIARLAPKVLPSATMSDILDENGRRTQSLDGTAGKPAKQREAQNRRQSSGSAQVRSRSRSLSRNKKTPYALDESYASSSSVESEEVQPPVTAPKAATPPPAANSSSDFKREITNADGSKDIWYPNGNLKKISADGMNLRMLYFNKDIKETNIREGTVKYYYAETNTWHTSYLDGLEILEFPNGQTEHRRKDGTVEIHFPNNSIKIVDPSDTEKLEEWRYADGTHLVQLRNGDKILNLPNGQKEIHTKLNKRREYPDGTVKLVYPDGSQETRYSNGRVRLKDKDGKLIMDTDYAKY |
| – | – | – | – | no binding | ^35S-Met-labeled Rcd4 (protein, UniProt Q9VLM6 1-199, ^35S-methionine-labeled) MPHKRRNRVHANQRNFTARRVSVAKLSSAPPNVLVESCNGSHADNSSPDSPKAKEGAMTNGKNPEIKLAVPKCNTTVRKQNEAHIISNIKLDMNLNKDSNFIAPQITKKMNFAPNRVVFGVLVPLNVNDSVLVPHNRKPDALKHTSKESESCKAISEPQLADYAEKVDPMIMAVKEPVLHLDWEPGPFDFFGAYRRTYN |
